{
  "sequences": {"note": "Chains of the proteins cited; added tags and fusions are not shown.", "UniProt P63018": "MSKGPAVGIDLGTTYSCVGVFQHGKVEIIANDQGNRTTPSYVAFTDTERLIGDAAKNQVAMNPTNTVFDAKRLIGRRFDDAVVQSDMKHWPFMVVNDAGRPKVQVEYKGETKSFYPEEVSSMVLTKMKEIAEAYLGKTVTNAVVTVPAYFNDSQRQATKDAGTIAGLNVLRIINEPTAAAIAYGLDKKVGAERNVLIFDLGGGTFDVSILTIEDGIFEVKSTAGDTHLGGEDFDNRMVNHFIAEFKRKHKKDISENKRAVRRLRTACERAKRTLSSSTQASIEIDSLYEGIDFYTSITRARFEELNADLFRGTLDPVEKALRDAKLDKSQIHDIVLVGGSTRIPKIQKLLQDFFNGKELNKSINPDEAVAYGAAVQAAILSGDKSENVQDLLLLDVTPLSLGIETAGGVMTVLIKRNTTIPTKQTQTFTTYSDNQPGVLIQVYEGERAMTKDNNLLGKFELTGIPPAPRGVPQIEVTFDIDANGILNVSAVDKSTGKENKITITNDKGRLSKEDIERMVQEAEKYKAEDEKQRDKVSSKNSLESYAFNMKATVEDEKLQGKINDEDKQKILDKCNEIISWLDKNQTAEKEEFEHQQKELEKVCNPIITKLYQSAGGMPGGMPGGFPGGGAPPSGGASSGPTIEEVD"},
  "source": "paper PMC7299723",
  "experiment_in_all_cases": "co-IP; endogenous proteins in extracts of cultured rat cortical neurons; anti-ZAG, anti-HADHB or anti-Hsc70 antibody (2 μg) overnight at 4°C, Protein A/G agarose, five washes with lysis buffer, Western blot; for the quantitative co-IP with anti-HSC70 the neurons were treated with apoptozole (5 μmol/L) or DMSO for 24 hours",
  "key": {"[1]": {"biological_target": "T1, Zinc‐α2‐glycoprotein (rat (endogenous in primary cortical neurons)) (UniProt Q63678)", "T1 sequence": "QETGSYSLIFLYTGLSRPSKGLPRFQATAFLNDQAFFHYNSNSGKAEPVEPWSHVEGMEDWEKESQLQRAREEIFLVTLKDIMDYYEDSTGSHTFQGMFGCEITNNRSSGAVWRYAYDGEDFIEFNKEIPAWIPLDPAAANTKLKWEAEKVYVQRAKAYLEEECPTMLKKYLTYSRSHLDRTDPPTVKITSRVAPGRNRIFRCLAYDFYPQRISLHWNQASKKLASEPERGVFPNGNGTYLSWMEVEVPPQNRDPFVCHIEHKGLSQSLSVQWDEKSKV"}, "[2]": {"biological_target": "T1, Zinc‐α2‐glycoprotein (rat (endogenous in primary cortical neurons))", "remark": "listed apart in the source"}, "[3]": {"biological_target": "T2, four β‐subunits of long‐chain L‐3‐hydroxyacyl‐CoA dehydrogenase (rat (endogenous in primary cortical neurons)) (UniProt Q60587)", "T2 sequence": "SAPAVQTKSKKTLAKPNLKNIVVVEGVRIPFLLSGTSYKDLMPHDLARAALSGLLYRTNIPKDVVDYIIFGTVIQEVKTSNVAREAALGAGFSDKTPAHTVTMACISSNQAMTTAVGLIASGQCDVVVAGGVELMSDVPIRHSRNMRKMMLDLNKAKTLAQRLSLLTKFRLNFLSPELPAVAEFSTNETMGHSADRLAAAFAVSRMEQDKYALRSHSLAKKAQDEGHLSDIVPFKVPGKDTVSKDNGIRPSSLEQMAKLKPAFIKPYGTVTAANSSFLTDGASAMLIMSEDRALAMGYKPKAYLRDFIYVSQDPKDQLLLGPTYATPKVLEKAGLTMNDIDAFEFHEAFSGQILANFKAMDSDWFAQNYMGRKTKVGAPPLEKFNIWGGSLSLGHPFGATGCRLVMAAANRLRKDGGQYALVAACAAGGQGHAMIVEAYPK"}, "[4]": {"biological_target": "heat shock cognate protein 70 (rat (endogenous in primary cortical neurons)) (UniProt P63018)"}},
  "note": "Like-named read-outs stand apart in the source and are kept apart here. These are yes or no findings as the source states them, for the method shown. Binding seen in cells or lysates may run through a third protein. Some binding calls cover weakened binding; strength is not graded here.",
  "data": [
    {"molecule": "heat shock cognate protein 70 (from UniProt P63018 1-646)", "values": [
      {"measurement": "binding", "setting": "[1]", "value": "binds"}
    ]},
    {"molecule": "four β‐subunits of long‐chain L‐3‐hydroxyacyl‐CoA dehydrogenase (enzyme, UniProt Q60587 35-475) SAPAVQTKSKKTLAKPNLKNIVVVEGVRIPFLLSGTSYKDLMPHDLARAALSGLLYRTNIPKDVVDYIIFGTVIQEVKTSNVAREAALGAGFSDKTPAHTVTMACISSNQAMTTAVGLIASGQCDVVVAGGVELMSDVPIRHSRNMRKMMLDLNKAKTLAQRLSLLTKFRLNFLSPELPAVAEFSTNETMGHSADRLAAAFAVSRMEQDKYALRSHSLAKKAQDEGHLSDIVPFKVPGKDTVSKDNGIRPSSLEQMAKLKPAFIKPYGTVTAANSSFLTDGASAMLIMSEDRALAMGYKPKAYLRDFIYVSQDPKDQLLLGPTYATPKVLEKAGLTMNDIDAFEFHEAFSGQILANFKAMDSDWFAQNYMGRKTKVGAPPLEKFNIWGGSLSLGHPFGATGCRLVMAAANRLRKDGGQYALVAACAAGGQGHAMIVEAYPK", "values": [
      {"measurement": "binding", "setting": "[2]", "value": "binds"}
    ]},
    {"molecule": "Zinc‐α2‐glycoprotein (protein, UniProt Q63678 18-296) QETGSYSLIFLYTGLSRPSKGLPRFQATAFLNDQAFFHYNSNSGKAEPVEPWSHVEGMEDWEKESQLQRAREEIFLVTLKDIMDYYEDSTGSHTFQGMFGCEITNNRSSGAVWRYAYDGEDFIEFNKEIPAWIPLDPAAANTKLKWEAEKVYVQRAKAYLEEECPTMLKKYLTYSRSHLDRTDPPTVKITSRVAPGRNRIFRCLAYDFYPQRISLHWNQASKKLASEPERGVFPNGNGTYLSWMEVEVPPQNRDPFVCHIEHKGLSQSLSVQWDEKSKV", "values": [
      {"measurement": "binding", "setting": "[3]", "value": "binds"},
      {"measurement": "binding", "setting": "[4]", "value": "binds"}
    ]}
  ]
}
